The text below walks through data of patent US20260183350A1, “ANTIBIOTIC-RESISTANT BACTERIA” (priority 2022, published 2026).

The test system of experiment [1] is faecal microbiota. Briefly: Faecal batch culture with antibiotics promoting CRE colonisation: 1H-NMR of nutrients and metabolites. The format is cell-based, human. The settings on record: 11 healthy donors, antibiotic at faecal concentration, 24 hours anaerobic. The procedure:
The inventors performed faecal culture experiments to measure the effects of eight broad-spectrum antibiotics on the faecal microbiota collected from 11 healthy human donors. Faecal culture experiments were performed under anaerobic conditions using a complex gut growth medium that was designed to mimic the nutrients found in the human distal gut (McDonald, J. A. et al. Evaluation of microbial community reproducibility, stability and composition in a human distal gut chemostat model. J. Microbiol. Methods 95, 167-174 (2013)). […] Moon, Y. S., Chung, K. C. & Gill, M. A. Pharmacokinetics of meropenem in animals, healthy volunteers, and patients. Clin Infect Dis 24, S249-S255 (1997). Kager, L., Brismar, B., Malmborg, A. S. & Nord, C. […] Samples were analysed by ^1H-NMR spectroscopy (for nutrient and metabolite profiling) and […] rRNA gene sequencing with 16S rRNA gene qPCR (for bacterial composition and biomass) (McDonald, J. A. K. et a/. Inhibiting Growth of Clostridioides difficile by Restoring Valerate, Produced by the Intestinal Microbiota. Gastroenterology 155, 1495-1507 (2018)).
Supernatants were prepared from faeces by vortexing 300 mg of faeces in 900 μl of HPLC-grade water for 10 minutes at 3000 rpm followed by centrifugation at 17,000×g for 10 minutes at 4° C. […] Supernatants were frozen at −80° C. until they were ready for analysis. […]

Experiment [2] has as its system faecal microbiota. Kind of experiment: Faecal batch culture with antibiotics promoting CRE colonisation: 16S rRNA gene sequencing and qPCR. The format is cell-based, human. The settings on record: 11 healthy donors, antibiotic at faecal concentration, 24 hours anaerobic. The procedure: The inventors performed faecal culture experiments to measure the effects of eight broad-spectrum antibiotics on the faecal microbiota collected from 11 healthy human donors. Faecal culture experiments were performed under anaerobic conditions using a complex gut growth medium that was designed to mimic the nutrients found in the human distal gut (McDonald, J. A. et al. Evaluation of microbial community reproducibility, stability and composition in a human distal gut chemostat model. J. Microbiol. Methods 95, 167-174 (2013)). […] Moon, Y. S., Chung, K. C. & Gill, M. A. Pharmacokinetics of meropenem in animals, healthy volunteers, and patients. Clin Infect Dis 24, S249-S255 (1997). Kager, L., Brismar, B., Malmborg, A. S. & Nord, C. E. Imipenem concentrations in colorectal surgery and impact on the colonic microflora. Antimicrob Agents Chemother 33, 204-8 (1989). Pletz, M. et al. Ertapenem pharmacokinetics and impact on intestinal microflora, in comparison to those of ceftriaxone, after multiple dosing in male and female volunteers. Antimicrob Agents Chemother 48, 3765-72 (2004). Nord, C. E., Brismar, B., Kasholm-Tengve, B. & Tunevall, G. Effect of piperacillin/tazobactam treatment on human bowel microflora. J Antimicrob Chemother 31, 61-5 (1993). […] Antimicrob Agents Chemother 63, 2244 (2019). […]

SMILES strings stand for the structures.

As to `O=C(O)c1cn(C2CC2)c2cc(N3CCNCC3)c(F)cc2c1=O` [CIP, ciprofloxacin], in the experiment with faecal microbiota [1], the “Change in butyrate concentration in faecal cultures” value is “decreased”. For the same molecule, in the experiment on faecal microbiota [2], the “Change in abundance of bacterial families relative to antibiotic-naive faecal cultures” value was “decreased the abundance of Bifidobacteriaceae, Barnesiellaceae, and Sutterellaceae”.
